Measured values from patent US20140200135A1, “Carbamoylmethoxy- and carbamoylmethylthio- and carbamoylmethylamino benzamides for combating invertebrate pests” (BASF SE, priority 2011, published 2014).
Some results were stated once for a whole list of compounds, not compound by compound.

Columns and labels:
Format in all cases: in vivo
[1] = test system: Diamond Backmoth (Plutella xylostella); assay: Diamond backmoth leaf-dip test, mortality; settings: 500 ppm; 72 hours after treatment; 3rd instar larvae on dipped cabbage leaves
Experimental: The active compound was dissolved at the desired concentration in a mixture of 1:1 (vol:vol) distilled water:aceteone. Surfactant (Alkamuls® EL 620) was added at a rate of 0.1% (vol/vol). The test solution was prepared at the day of use.
Leaves of cabbage were dipped in test solution and air-dried. Treated leaves were placed in petri dishes lined with moist filter paper and inoculated with ten 3rd instar larvae. Mortality was recorded 72 hours after treatment. Feeding damages were also recorded using a scale of 0-100%.

[2] = test system: Green Peach Aphid (Myzus persicae); assay: Green peach aphid spray test on bell pepper plants, mortality; settings: 2500 ppm; after 5 days; sprayed bell pepper plants
Excerpt: (§1) The active compounds were formulated in cyclohexanone as a 10,000 ppm solution supplied in tubes. The tubes were inserted into an automated electrostatic sprayer equipped with an atomizing nozzle and they served as stock solutions for which lower dilutions were made in 50% acetone:50% water (v/v). A nonionic surfactant (Kinetic®) was included in the solution at a volume of 0.01% (v/v).
Bell pepper plants at the first true-leaf stage were infested prior to treatment by placing heavily infested leaves from the main colony on top of the treatment plants. Aphids were allowed to transfer overnight to accomplish an infestation of 30-50 aphids per plant and the host leaves were removed. The infested plants were then sprayed by an automated electrostatic plant sprayer equipped with an atomizing spray nozzle. The plants were dried in the sprayer fume hood, removed, and then maintained in a growth room under fluorescent lighting in a 24-hr photoperiod at about 25° C. and about 20-40% relative humidity. Aphid mortality on the treated plants, relative to mortality on untreated control plants, was determined after 5 days.

[3] = test system: Boll weevil (Anthonomus grandis); assay: Boll weevil microtiter diet test, egg and larval mortality; settings: 2500 ppm, 5 days, insect diet
Experimental: For evaluating control of boll weevil (Anthonomus grandis) the test unit consisted of 24-well-microtiter plates containing an insect diet and 20-30 A. grandis eggs.
(§2) The compounds were formulated using a solution containing 75% v/v water and 25% v/v DMSO. Different concentrations of formulated compounds were sprayed onto the insect diet at 20 μl, using a custom built micro atomizer, at two replications.
After application, microtiter plates were incubated at about 23±1° C. and about 50±5% relative humidity for 5 days. Egg and larval mortality was then visually assessed.

[4] = test system: Mediterranean Fruitfly (Ceratitis capitata); assay: Mediterranean fruitfly microtiter diet test, egg and larval mortality; settings: 2500 ppm, 5 days, insect diet
Experimental: For evaluating control of Mediterranean fruitfly (Ceratitis capitata) the test unit consisted of microtiter plates containing an insect diet and 50-80 C. capitata eggs.
The compounds were formulated using a solution containing 75% v/v water and 25% v/v DMSO. Different concentrations of formulated compounds were sprayed onto the insect diet at 5 μl, using a custom built micro atomizer, at two replications.
After application, microtiter plates were incubated at about 28±1° C. and about 80±5% relative humidity for 5 days. Egg and larval mortality was then visually assessed.

[5] = test system: Cowpea Aphid (Aphis Craccivora); assay: Cowpea aphid spray test on potted cowpea plants, mortality; settings: 500 ppm; after 72 hours; sprayed cowpea plants
Experimental: The active compound was dissolved at the desired concentration in a mixture of 1:1 (vol:vol) distilled water:acetone. Surfactant (Alkamuls® EL 620) is added at a rate of 0.1% (vol/vol). The test solution was prepared at the day of use.
Potted cowpea plants were colonized with approximately 50-100 aphids of various stages by manually transferring a leaf tissue cut from infested plant 24 hours before application. Plants were sprayed after the pest population has been recorded. Treated plants were maintained on light carts at about 28° C. Percent mortality was assessed after 72 hours.

[6] = test system: Vetch aphid (Megoura viciae); assay: Vetch aphid broad bean leaf disk test, mortality; settings: 2500 ppm; 5 days; adult aphids on broad bean leaf disks
Experimental: For evaluating control of vetch aphid (Megoura viciae) through contact or systemic means the test unit consisted of 24-well-microtiter plates containing broad bean leaf disks.
The compounds were formulated using a solution containing 75% v/v water and 25% v/v DMSO. Different concentrations of formulated compounds were sprayed onto the leaf disks at 2.5 μl, using a custom built micro atomizer, at two replications.
After application, the leaf disks were air-dried and 5-8 adult aphids placed on the leaf disks inside the microtiter plate wells. The aphids were then allowed to suck on the treated leaf disks and incubated at about 23±1° C. and about 50±5% relative humidity for 5 days. Aphid mortality and fecundity was then visually assessed.

[7] = test system: Southern Armyworm (Spodoptera eridiana); 2nd Instar Larvae; assay: Southern armyworm foliar spray test on lima bean, mortality; settings: 500 ppm; 4 days after treatment; lima bean foliage spray
Experimental: as §1
Lima bean plants (variety Sieva) were grown 2 plants to a pot and selected for treatment at the 1st true leaf stage. Test solutions were sprayed onto the foliage by an automated electrostatic plant sprayer equipped with an atomizing spray nozzle. The plants were dried in the sprayer fume hood and then removed from the sprayer. Each pot was placed into perforated plastic bags with a zip closure. About 10 to 11 armyworm larvae were placed into the bag and the bags zipped closed. Test plants were maintained in a growth room at about 25° C. and about 20-40% relative humidity for 4 days, avoiding direct exposure to fluorescent light (24 hour photoperiod) to prevent trapping of heat inside the bags. Mortality and reduced feeding were assessed 4 days after treatment, compared to untreated control plants.

[8] = test system: TOBACCO budworm (Heliothis virescens); assay: Tobacco budworm microtiter diet test, egg and larval mortality; settings: 2500 ppm, 5 days, insect diet
Experimental: as §2, with “For evaluating control of tobacco budworm (Heliothis virescens) the test unit consisted of 96-well-microtiter plates containing an insect diet and 15-25 H. virescens eggs. The” for “The”, “10” for “20”
After application, microtiter plates were incubated at about 28±1° C./and about 80±5% relative humidity for 5 days. Egg and larval mortality was then visually assessed.

Row | Compound | mortality in comparison with untreated controls [1] | mortality in comparison with untreated controls [2] | mortality in comparison with untreated controls [3] | mortality in comparison with untreated controls [4] | mortality in comparison with untreated controls [5] | mortality in comparison with untreated controls [6] | mortality in comparison with untreated controls [7] | mortality in comparison with untreated controls [8]
1 | CCNC(=O)CONC(=O)c1cc(Cl)cc(C)c1NC(=O)c1cc(Br)nn1-c1ncccc1Cl [Compound 1-4] | 100% | over 75% | over 75% | over 75% | over 75% | over 75% | 100% | over 75%
2 | O=C(CONC(=O)c1cc(Cl)cc(Cl)c1NC(=O)c1cc(Br)nn1-c1ncccc1Cl)NCc1ccccc1 [Compound 1-13] | 100% | over 75% | over 75% | over 75% | over 75% | over 75% | 100% | over 75%
3 | O=C(CONC(=O)c1cc(F)cc(Br)c1NC(=O)c1cc(Br)nn1-c1ncccc1Cl)Nc1ccccc1 [Compound 1-17] | 100% | over 75% | over 75% | over 75% | over 75% | over 75% | 100% | over 75%
4 | O=C(CONC(=O)c1cc(F)cc(Br)c1NC(=O)c1cc(Br)nn1-c1ncccc1Cl)NCc1ccccc1 [Compound 1-18] | 100% | over 75% | over 75% | over 75% | over 75% | over 75% | 100% | over 75%
5 | CC(C)C(ONC(=O)c1cc(Cl)cc(Br)c1NC(=O)c1cc(Br)nn1-c1ncccc1Cl)C(=O)N(C)C (stereo not drawn) [Compound 1-22] | 100% | over 75% | over 75% | over 75% | over 75% | over 75% | 100% | over 75%
6 | CNC(=O)C(ONC(=O)c1cc(Cl)cc(C)c1NC(=O)c1cc(Br)nn1-c1ncccc1Cl)C(C)C (stereo not drawn) [Compound 1-23] | 100% | over 75% | over 75% | – | over 75% | over 75% | 100% | over 75%
7 | CNC(=O)CONC(=O)c1cc(Cl)cc(C)c1NC(=O)c1cc(C(F)(F)F)nn1-c1ncccc1Cl [Compound 1-24] | 100% | over 75% | over 75% | over 75% | over 75% | over 75% | 100% | over 75%
8 | CNC(=O)C(ONC(=O)c1cc(F)cc(Br)c1NC(=O)c1cc(Br)nn1-c1ncccc1Cl)C(C)C (stereo not drawn) [Compound 1-29] | 100% | over 75% | over 75% | over 75% | over 75% | over 75% | 100% | over 75%
9 | O=C(CONC(=O)c1cc(Cl)cc(Br)c1NC(=O)c1cc(Br)nn1-c1ncccc1Cl)Nc1ccccc1 [Compound 1-36] | 100% | over 75% | over 75% | over 75% | over 75% | over 75% | 100% | over 75%
10 | CC(C)C(ONC(=O)c1cc(Cl)cc(Br)c1NC(=O)c1cc(Br)nn1-c1ncccc1Cl)C(N)=O (stereo not drawn) [Compound 1-46] | 100% | over 75% | over 75% | over 75% | over 75% | over 75% | 100% | over 75%
11 | CNC(=O)CONC(=O)c1cc(Cl)cc(Cl)c1NC(=O)c1cc(Br)nn1-c1ncccc1Cl [Compound 1-48] | 100% | over 75% | over 75% | over 75% | over 75% | over 75% | 100% | over 75%
12 | CC(C)C(ONC(=O)c1cc(F)cc(Br)c1NC(=O)c1cc(Br)nn1-c1ncccc1Cl)C(N)=O (stereo not drawn) [Compound 1-51] | 100% | – | – | over 75% | over 75% | over 75% | 100% | –
13 | O=C(CONC(=O)c1cc(Cl)cc(Br)c1NC(=O)c1cc(Br)nn1-c1ncccc1Cl)NCc1ccccc1 [Compound 1-57] | 100% | over 75% | over 75% | over 75% | over 75% | – | 100% | over 75%
